Results reported in PMC10039360.

Target: T1, LZTFL1 (endogenous) (human (endogenous in HEK293T)) (UniProt Q9NQ48)
T1 sequence: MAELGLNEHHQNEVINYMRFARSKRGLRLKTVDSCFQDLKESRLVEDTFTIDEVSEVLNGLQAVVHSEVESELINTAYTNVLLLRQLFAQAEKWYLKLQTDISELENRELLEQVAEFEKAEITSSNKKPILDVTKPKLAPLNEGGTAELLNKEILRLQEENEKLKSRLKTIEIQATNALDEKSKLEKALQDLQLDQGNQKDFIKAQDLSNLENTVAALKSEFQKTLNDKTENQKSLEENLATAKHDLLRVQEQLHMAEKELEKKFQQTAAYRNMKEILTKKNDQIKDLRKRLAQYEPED
Assay: co-IP; HEK293T cells (no transfection named); immunoprecipitated with control IgG or anti-LZTFL1 antibody, blotted with anti-AKT or anti-LZTFL1 antibody

- binding: binds
Substance: AKT (endogenous) (human (endogenous in HEK293T)) (enzyme)

No constants are given. Whether binding was seen depends on the method and setting. Binding seen in cells or lysates may run through a third protein. Binding can be weak; no strength is given.
